No constants are given. Whether binding was seen depends on the method and setting. Binding seen in cells or lysates may run through a third protein. A yes stands for co-enrichment or nearness to the bait. Other partners may have been found. Sequences can lack the tags named with a protein.
Biological target: T1, flag tagged DAB2IP (UniProt Q5VWQ8)
T1 sequence: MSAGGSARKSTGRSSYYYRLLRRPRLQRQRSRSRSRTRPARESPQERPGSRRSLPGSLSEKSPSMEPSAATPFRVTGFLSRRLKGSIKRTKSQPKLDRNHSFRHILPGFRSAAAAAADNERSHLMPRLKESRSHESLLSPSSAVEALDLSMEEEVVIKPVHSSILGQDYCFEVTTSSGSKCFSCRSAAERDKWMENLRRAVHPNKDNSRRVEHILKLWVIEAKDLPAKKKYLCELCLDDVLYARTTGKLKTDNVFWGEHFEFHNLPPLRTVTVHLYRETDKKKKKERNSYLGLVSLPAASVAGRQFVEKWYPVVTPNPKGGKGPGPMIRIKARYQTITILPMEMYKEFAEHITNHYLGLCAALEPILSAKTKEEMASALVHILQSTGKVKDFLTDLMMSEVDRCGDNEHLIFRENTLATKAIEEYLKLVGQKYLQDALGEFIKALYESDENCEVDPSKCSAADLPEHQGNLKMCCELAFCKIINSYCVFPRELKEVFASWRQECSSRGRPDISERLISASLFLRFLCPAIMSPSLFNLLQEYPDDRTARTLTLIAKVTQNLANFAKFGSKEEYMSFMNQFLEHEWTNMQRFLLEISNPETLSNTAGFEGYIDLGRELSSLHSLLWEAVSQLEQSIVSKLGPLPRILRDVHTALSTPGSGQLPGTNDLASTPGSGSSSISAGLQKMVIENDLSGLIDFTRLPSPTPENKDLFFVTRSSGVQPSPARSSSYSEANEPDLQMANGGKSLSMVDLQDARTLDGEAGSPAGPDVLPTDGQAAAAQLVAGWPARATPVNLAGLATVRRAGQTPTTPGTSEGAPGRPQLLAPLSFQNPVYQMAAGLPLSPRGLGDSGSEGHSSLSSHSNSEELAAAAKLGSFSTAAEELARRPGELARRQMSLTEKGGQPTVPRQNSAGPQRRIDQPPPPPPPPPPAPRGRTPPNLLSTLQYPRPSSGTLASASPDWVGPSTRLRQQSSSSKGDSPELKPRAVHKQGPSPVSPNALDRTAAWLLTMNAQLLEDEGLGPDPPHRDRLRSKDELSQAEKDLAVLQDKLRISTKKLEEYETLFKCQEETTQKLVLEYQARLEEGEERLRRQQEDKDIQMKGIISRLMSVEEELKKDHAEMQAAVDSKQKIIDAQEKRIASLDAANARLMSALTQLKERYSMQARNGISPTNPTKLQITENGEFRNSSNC
Assay: affinity purification with mass spectrometry; cells transfected with flag tagged DAB2IP lysed, immunoprecipitated with anti-flag antibody; bands cut from Coomassie stained SDS-PAGE gel, Orbitrap Elite LC-MS/MS

Sequences of proteins named here, by UniProt entry; tags and fusion partners are left off.
UniProt Q92769: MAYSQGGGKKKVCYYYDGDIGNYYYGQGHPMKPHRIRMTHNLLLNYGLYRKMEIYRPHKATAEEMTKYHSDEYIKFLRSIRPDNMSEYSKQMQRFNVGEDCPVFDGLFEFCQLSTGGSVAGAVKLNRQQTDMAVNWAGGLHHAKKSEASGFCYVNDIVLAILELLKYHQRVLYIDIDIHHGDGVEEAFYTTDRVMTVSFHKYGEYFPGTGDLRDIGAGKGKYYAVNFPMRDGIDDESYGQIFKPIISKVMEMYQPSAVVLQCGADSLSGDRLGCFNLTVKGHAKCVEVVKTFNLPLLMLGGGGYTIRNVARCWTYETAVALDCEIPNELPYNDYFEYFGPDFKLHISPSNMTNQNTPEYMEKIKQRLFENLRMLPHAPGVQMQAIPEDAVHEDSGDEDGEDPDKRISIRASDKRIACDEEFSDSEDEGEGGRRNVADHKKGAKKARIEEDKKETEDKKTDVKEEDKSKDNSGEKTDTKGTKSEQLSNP

Substance: histone deacetylase (HDAC2) (from UniProt Q92769 1-488) (enzyme)
- binding: binds

— paper PMC5620150
